Measurements taken from article PMC9216541 (PLoS ONE, 2022).
Where no end group is shown, it is not given here. The star is where a group is joined. FITC = O=C1OC2(c3ccc(O)cc3Oc3cc(O)ccc32)c2ccc(NC(=S)*)cc21; GABA = NCCCC(=O)O

Assay: peptide synthesis
Settings: whole synthesis
Substance FITC-GABA-IRRRGKNKR5AAS5NCRKRK has an isolated yield of 3%.
FITC-GABA-IRRRR8KNKVAAS5NCRKRK gave an isolated yield of 8%.
Work on FITC-GABA-RRRS5KNKS5AAQNCRKRK yielded an isolated yield of 7%.
FITC-GABA-S5RRRS5KNKVAAQNCRKRK showed an isolated yield of 5%.
{FITC-GABA}-IRRRGKNKVAAQNCRKRK showed an isolated yield of 5%.
{FITC-GABA}-KNAIQARKCGRKVRRNKR gave an isolated yield of 8%.

Assay: general procedure: Fmoc solid-phase peptide synthesis; Rink amide or MBHA Rink amide resin; Rink Amide MBHA LL resin (0.38 mmol/g); PyClocK, DIPEA in DMF
Settings: whole synthesis
Work on Ac-IRRRGKNKR5AAS5NCRKRK yielded an isolated yield of 6%.
Work on Ac-IRRRGKNKVAAQNCRKRK yielded an isolated yield of 8%.
With Ac-IRRRR8KNKVAAS5NCRKRK the isolated yield was 9%.
Ac-KNAIQARKCGRKVRRNKR gave an isolated yield of 6%.
For Ac-RRRS5KNKS5AAQNCRKRK, the isolated yield was 9%.
In the case of Ac-S5RRRS5KNKVAAQNCRKRK, the isolated yield is reported as 7%.
